{"sequences": {"note": "Protein sequences, listed by entry. Tags and fused reporters are not part of them.", "UniProt P09012": "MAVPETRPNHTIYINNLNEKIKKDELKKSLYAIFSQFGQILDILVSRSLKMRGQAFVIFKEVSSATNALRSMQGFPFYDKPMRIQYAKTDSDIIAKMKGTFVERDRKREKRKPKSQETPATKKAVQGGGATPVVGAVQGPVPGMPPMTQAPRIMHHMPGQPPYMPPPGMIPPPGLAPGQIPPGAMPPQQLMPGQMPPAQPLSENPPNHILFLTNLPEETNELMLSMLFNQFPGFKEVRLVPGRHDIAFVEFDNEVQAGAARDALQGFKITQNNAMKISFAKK", "UniProt P08621": "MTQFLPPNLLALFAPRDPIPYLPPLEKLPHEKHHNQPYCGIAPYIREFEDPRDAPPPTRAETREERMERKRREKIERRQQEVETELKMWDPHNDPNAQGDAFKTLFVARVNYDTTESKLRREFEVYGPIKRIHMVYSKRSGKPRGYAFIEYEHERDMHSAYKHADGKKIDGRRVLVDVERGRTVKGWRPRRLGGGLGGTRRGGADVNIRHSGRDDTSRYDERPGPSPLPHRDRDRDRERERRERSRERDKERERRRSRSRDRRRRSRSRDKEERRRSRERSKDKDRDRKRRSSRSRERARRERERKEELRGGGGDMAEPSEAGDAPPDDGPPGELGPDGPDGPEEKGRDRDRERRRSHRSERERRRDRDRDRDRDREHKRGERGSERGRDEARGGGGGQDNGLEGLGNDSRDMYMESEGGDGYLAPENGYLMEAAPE", "UniProt O75400": "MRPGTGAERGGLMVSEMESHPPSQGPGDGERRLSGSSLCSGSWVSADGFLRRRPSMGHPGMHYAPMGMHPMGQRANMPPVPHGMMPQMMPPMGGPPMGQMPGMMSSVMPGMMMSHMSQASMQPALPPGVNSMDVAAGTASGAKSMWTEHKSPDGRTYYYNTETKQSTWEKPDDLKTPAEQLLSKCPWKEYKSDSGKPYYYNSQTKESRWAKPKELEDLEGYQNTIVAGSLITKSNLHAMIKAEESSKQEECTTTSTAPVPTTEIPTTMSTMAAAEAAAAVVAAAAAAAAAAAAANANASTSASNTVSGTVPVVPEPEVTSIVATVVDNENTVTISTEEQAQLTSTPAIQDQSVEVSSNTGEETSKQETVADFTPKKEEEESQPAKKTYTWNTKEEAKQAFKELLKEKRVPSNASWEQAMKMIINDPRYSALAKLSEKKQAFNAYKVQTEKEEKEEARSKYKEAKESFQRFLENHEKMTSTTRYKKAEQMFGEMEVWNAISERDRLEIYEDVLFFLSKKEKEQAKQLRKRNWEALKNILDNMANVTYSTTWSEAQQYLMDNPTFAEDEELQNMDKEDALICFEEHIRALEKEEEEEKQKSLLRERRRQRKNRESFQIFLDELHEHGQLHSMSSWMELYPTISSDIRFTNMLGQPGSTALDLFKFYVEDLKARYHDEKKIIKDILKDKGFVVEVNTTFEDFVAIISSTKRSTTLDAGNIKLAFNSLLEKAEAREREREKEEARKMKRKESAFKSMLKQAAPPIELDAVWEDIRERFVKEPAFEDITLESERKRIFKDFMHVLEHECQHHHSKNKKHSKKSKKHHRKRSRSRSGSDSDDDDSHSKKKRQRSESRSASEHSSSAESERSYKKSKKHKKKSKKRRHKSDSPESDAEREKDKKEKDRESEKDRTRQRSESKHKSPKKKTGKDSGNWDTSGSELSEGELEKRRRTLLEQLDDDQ", "UniProt Q07955": "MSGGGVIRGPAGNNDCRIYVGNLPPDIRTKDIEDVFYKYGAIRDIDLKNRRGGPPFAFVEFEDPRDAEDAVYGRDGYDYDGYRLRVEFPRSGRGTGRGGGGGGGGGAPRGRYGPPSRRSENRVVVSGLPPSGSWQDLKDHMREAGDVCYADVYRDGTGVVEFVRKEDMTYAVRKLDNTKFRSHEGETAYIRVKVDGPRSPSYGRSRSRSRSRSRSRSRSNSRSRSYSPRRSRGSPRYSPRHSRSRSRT"}, "source": "paper PMC11208138", "assay_in_all_cases": "cross-linking; affinity-purified CE pre-B complexes crosslinked with 400 μM BS3 45 min at 18 °C, dimer peak of a glycerol gradient, trypsin digest, mass spectrometry, pLink", "key": {"[1]": {"target": "T1, LUC7L3 (human (endogenous in HeLa)) (UniProt O95232)", "T1 sequence": "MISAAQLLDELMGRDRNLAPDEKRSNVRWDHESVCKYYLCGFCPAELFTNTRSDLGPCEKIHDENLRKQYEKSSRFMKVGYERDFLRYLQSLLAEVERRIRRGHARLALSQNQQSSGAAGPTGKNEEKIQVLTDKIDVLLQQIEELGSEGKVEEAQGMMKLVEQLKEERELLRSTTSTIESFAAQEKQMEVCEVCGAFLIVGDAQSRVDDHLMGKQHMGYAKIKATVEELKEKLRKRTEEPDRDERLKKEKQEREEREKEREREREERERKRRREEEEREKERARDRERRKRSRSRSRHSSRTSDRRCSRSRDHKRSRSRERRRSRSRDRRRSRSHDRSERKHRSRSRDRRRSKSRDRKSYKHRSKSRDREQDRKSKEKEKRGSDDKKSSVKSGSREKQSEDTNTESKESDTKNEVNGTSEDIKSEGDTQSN"}, "[2]": {"target": "U1-A (human (endogenous in HeLa)) (UniProt P09012)"}, "[3]": {"target": "U1-70K (human (endogenous in HeLa)) (UniProt P08621)"}}, "note": "No constants are given. Whether binding was seen depends on the method and setting. In cells and extracts the contact can be indirect. Some results given as binding are weak or reduced against the parent protein; the word gives no strength. For some of these results: Sequences can lack the tags named with a protein."}
{"substance": "PRPF40A (from UniProt O75400 1-957)", "values": [{"measurement": "binding", "setting": "[1]", "result": "binds"}, {"measurement": "binding", "setting": "[2]", "result": "binds"}, {"measurement": "binding", "setting": "[3]", "result": "binds"}]}
{"substance": "SRSF1 (from UniProt Q07955 1-248)", "values": [{"measurement": "binding", "setting": "[3]", "result": "binds"}]}
